Experimental data taken from paper doi:10.1101/2023.04.03.535445 (bioRxiv, 2023).
No constants are given. Whether binding was seen depends on the method and setting. Binding can be weak; no strength is given.

What was measured:
[1] = molecular target: glycosomal malate dehydrogenase (MDH, residues 1-323) of Trypanosoma cruzi (Trypanosoma cruzi) (UniProt Q4DRD8); test: SEC
[2] = molecular target: glycosomal malate dehydrogenase (MDH, residues 1-323) of Trypanosoma cruzi (Trypanosoma cruzi) (UniProt Q4DRD8); test: cryo-EM structure
[3] = molecular target: glycosomal malate dehydrogenase (MDH, residues 1-323) of Trypanosoma cruzi (Trypanosoma cruzi) (UniProt Q4DRD8); test: cryo-EM structure; remark: listed apart in the source

Measured: binding

full length Pex5 (residues 1-666) of Trypanosoma cruzi (from UniProt Q4DPQ9) (receptor)
binds: all assays above
